Source: US11236059B2 (HELMHOLTZ-ZENTRUM FUER INFEKTIONSFORSCHUNG GMBH, priority 2017, dated 2022)

Assay: general procedure: Fmoc solid-phase peptide synthesis; Rapp 2-chlorotrityl resin; Rapp S RAM resin (0.8 mmol/g); HATU/HOAt/NMM; TBTU/DiPEA
Details: conjugation step

Substance | conjugation yield [%]
N^2-N^2—((S)-4-(4-(((2-amino-4-hydroxypteridin-6-yl)methyl)amino)benzamido)-4-carboxybutanoyl)-D-aspartyl-D-aspartyl-N^6-(4-(2-(4-(2-(((2-(3-(3′,6′-dihydroxy-3-oxo-3H-spiro[isobenzofuran-1,9′-xanthen]-5-yl)thioureido)ethyl)carbamoyl)oxy)ethyl)-1H-1,2,3-triazol-1-yl))benzoyl)-L-lysyl-L-aspartyl-L-aspartyl-N^6-(4-fluorobenzoyl)-L-lysine | 27
((S)-2-((R)-2-((R)-2-((R)-2-((S)-4-(4-(((2-amino-4-hydroxypteridin-6-yl)methyl)amino)benzamido)-4-carboxybutanamido)-3-carboxypropanamido)-3-carboxypropanamido)-3-carboxypropanamido)-5-(4-(2-(((2-(3-(3′,6′-dihydroxy-3-oxo-3H-spiro[isobenzofuran-1,9′-xanthen]-5-yl)thioureido)ethyl)carbamoyl)oxy)ethyl)-1H-1,2,3-triazol-1-yl)pentanoyl)-D-aspartyl-D-aspartyl-D-lysine | 57
L-Orn-LHRH—CF | 60
N^2-(4-(((2-amino-4-hydroxypteridin-6-yl)methyl)amino)benzoyl)-N^5—((S)-1-(((S)-1-(((S)-1-(((S)-6-(4-azidobenzamido)-1-methoxy-1-oxohexan-2-yl)amino)-3-carboxy-1-oxopropan-2-yl)amino)-3-carboxy-1-oxopropan-2-yl)amino)-3-carboxy-1-oxopropan-2-yl)-L-glutamine | 32
((5aR,6S,6aS)-1-((3S,6S,9S,12S,15R)-3-((1H-imidazol-4-yl)methyl)-6-((1H-indol-3-yl)methyl)-15-(((S)-1-(((S)-1—((S)-2-((2-amino-2-oxoethyl)carbamoyl)pyrrolidin-1-yl)-5-guanidino-1-oxopentan-2-yl)amino)-4-methyl-1-oxopentan-2-yl)carbamoyl)-12-(4-hydroxybenzyl)-9-(hydroxymethyl)-1,4,7,10,13-pentaoxo-1-((S)-5-oxopyrrolidin-2-yl)-2,5,8,11,14-pentaazaoctadecan-18-yl)-1,4,5,5a,6,6a,7,8-octahydrocyclopropa[5,6]cycloocta[1,2-d][1,2,3]triazol-6-yl)methyl (2-(2-(2-(3′,6′-dihydroxy-3-oxo-3H-spiro[isobenzofuran-1,9′-xanthene]-5-carboxamido)ethoxy)ethoxy)ethyl)carbamate | 69
((5aR,6S,6aS)-1-((3S,6S,9S,12S,15R)-3-((1H-imidazol-4-yl)methyl)-6-((1H-indol-3-yl)methyl)-15-(((S)-1-(((S)-1—((S)-2-(2-carbamoylhydrazine-1-carbonyl)pyrrolidin-1-yl)-5-guanidino-1-oxopentan-2-yl)amino)-4-methyl-1-oxopentan-2-yl)carbamoyl)-12-(4-hydroxybenzyl)-9-(hydroxymethyl)-1,4,7,10,13-pentaoxo-1-((S)-5-oxopyrrolidin-2-yl)-2,5,8,11,14-pentaazaoctadecan-18-yl)-1,4,5,5a,6,6a,7,8-octahydrocyclopropa[5,6]cycloocta[1,2-d][1,2,3]triazol-6-yl)methyl (2-(2-(2-(3′,6′-dihydroxy-3-oxo-3H-spiro[isobenzofuran-1,9′-xanthene]-5-carboxamido)ethoxy)ethoxy)ethyl)carbamate | 70
N^2—((S)-4-(4-(((2-amino-4-hydroxypteridin-6-yl)methyl)amino)benzamido)-4-carboxybutanoyl)-L-aspartyl-L-aspartyl-L-aspartyl-N^6 (4-((5aR,6S,6aS)-6-((((2-(3-(3′,6′-dihydroxy-3-oxo-3H-spiro[isobenzofuran-1,9′-xanthen]-5-yl)thioureido)ethyl)carbamoyl)oxy)methyl)-5,5a,6,6a,7,8-hexahydrocyclopropa[5,6]cycloocta[1,2-d][1,2,3]triazol-1 (4H)-yl)benzoyl)-L-lysine | 30

Same assay, conditions: coupling step

Substance | step yield [%]
(7S,10S,13S,16S)-16-((((9H-fluoren-9-yl)methoxy)carbonyl)amino)-1-(4-azidophenyl)-10,13-bis(carboxymethyl)-7-(methoxycarbonyl)-1,9,12,15-tetraoxo-2,8,11,14-tetraazaoctadecan-18-oic acid | 52
